From article PMC3517456
Results are given in words; binding and its absence hold for the method and conditions named. A result given as binding can be weak or reduced; the word gives no strength.

Chains of the proteins cited; added tags and fusions are not shown. Lines headed by an entry give the natural chain unless they say otherwise; changes in a name come on top.
UniProt P50616: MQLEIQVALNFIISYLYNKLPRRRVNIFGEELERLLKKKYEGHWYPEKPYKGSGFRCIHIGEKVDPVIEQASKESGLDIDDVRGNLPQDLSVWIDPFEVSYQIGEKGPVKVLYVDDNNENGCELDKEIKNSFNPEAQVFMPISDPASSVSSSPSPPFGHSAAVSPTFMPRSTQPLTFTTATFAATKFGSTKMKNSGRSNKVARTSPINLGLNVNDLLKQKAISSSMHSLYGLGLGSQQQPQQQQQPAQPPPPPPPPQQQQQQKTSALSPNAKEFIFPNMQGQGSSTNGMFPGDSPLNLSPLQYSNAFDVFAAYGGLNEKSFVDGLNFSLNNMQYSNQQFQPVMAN
UniProt Q9UFF9: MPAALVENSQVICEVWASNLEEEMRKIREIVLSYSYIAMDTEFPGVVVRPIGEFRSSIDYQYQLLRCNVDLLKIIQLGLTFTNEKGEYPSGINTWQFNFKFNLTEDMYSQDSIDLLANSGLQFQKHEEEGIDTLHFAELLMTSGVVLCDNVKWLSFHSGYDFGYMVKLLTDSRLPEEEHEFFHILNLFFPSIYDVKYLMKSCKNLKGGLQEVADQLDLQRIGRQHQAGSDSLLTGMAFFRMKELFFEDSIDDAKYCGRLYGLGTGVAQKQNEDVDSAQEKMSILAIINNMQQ
UniProt Q9UIV1: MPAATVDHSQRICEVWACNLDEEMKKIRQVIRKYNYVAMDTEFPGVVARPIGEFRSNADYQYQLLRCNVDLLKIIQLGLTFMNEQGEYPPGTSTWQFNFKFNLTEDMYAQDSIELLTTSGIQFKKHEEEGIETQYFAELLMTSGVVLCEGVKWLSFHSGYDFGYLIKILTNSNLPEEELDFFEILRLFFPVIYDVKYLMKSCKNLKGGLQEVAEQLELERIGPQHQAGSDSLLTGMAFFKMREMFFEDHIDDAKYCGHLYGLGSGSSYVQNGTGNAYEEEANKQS

Target: Gal4-DNA binding domain-TOB1 H45A (human) (UniProt P50616)
Assay: two-hybrid; yeast strain YRG-2; BTG2 or TOB1 fused to the GAL4 DNA-binding domain, Caf1a or Caf1b fused to the GAL4 activation domain; LacZ reporter under five GAL4 consensus sequences; β-galactosidase activity (Beta-GLO) normalised to OD600; triplicate

binding	Substance
binds	Gal4AD-Caf1b (from UniProt Q9UFF9 1-292) (enzyme)
binds	Gal4AD-Caf1a (from UniProt Q9UIV1 1-285) (enzyme)
